Measured values: the supplement of paper PMC9578143, “Small-Molecule Ebselen Binds to YTHDF Proteins Interfering with the Recognition of N^6-Methyladenosine-Modified RNAs” (ACS Pharmacology & Translational Science, 2022)
The other results are listed elsewhere or left out. Part of the spread comes from offsets between plates or batches.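 Hits were defined as a z-score below −3.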 Non-standard residues stand in square brackets, D forms with d. Residues, ends and D or L forms follow the SMILES beside them. *: point of attachment. NHCH2CH2OH = OCCN*; For = O=C*

target: T1, YTHDF1 YTH domain (aa 365-554) (UniProt Q9BYJ9); test: tryptophan fluorescence intensity z-score (mean); higher = higher fluorescence, less quenching (negative = binding / quenching); details: 10 µM
T1 sequence (whole entry): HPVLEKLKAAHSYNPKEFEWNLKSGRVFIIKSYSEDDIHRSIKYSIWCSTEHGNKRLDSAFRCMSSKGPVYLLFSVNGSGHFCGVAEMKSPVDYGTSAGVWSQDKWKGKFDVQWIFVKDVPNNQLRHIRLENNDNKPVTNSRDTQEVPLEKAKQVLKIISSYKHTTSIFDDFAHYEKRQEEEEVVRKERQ

Tryptophan fluorescence intensity z-score, inactive:
CN(C)c1nc(N(C)C)nc(N(C)C)n1 (plate: M 7-8) 0.0106
CC(=O)O[C@]1(C(C)=O)CC[C@H]2[C@@H]3C[C@H](C)C4=CC(=O)CC[C@]4(C)[C@H]3CC[C@@]21C (plate: M 5-6) -0.00801
CC(C)NCC(O)c1ccc2ccccc2c1 (stereo not drawn) (plate: M 21-22) 0.95
O.O.O.O.O.O.O.O.O.O.O.O.O.O.O.O.O=S(=O)([O][Al])OC[C@H]1O[C@@](COS(=O)(=O)[O][Al])(O[C@H]2O[C@H](COS(=O)(=O)[O][Al])[C@@H](OS(=O)(=O)[O][Al])[C@H](OS(=O)(=O)[O][Al])[C@H]2OS(=O)(=O)[O][Al])[C@@H](OS(=O)(=O)[O][Al])[C@@H]1OS(=O)(=O)[O][Al] (plate: M 13-14) 0.55
c1ccc([C@H]2CN3CCSC3=N2)cc1 (plate: M 7-8) -0.0686
CCC(=O)O[C@]1(C(=O)CCl)[C@@H](C)C[C@H]2[C@@H]3CCC4=CC(=O)C=C[C@]4(C)[C@@]3(F)[C@@H](O)C[C@@]21C (plate: M 9-10) -0.439
O=C1C[C@@H](c2ccc(O)cc2)Oc2cc(O)cc(O)c21 (plate: M 17-18) -0.216
O=C(/C=C/C(=O)Oc1ccccc1C(=O)O)Oc1ccccc1C(=O)O (plate: M 23-24) 0.685
NC(=O)c1ccc([N+](=O)[O-])cc1Cl (plate: M 7-8) 0.485
O=C1OCCN1/N=C/c1ccc([N+](=O)[O-])o1 (plate: M 3-4) -0.285
CC(C)C[C@@H](NC(=O)[C@H](C)NC(=O)CNC(=O)[C@@H](NC=O)C(C)C)C(=O)N[C@@H](C)C(=O)N[C@@H](C(=O)N[C@H](C(=O)N[C@H](C(=O)N[C@@H](Cc1c[nH]c2ccccc12)C(=O)N[C@H](CC(C)C)C(=O)N[C@@H](Cc1c[nH]c2ccccc12)C(=O)N[C@H](CC(C)C)C(=O)N[C@@H](Cc1c[nH]c2ccccc12)C(=O)N[C@H](CC(C)C)C(=O)N[C@@H](Cc1c[nH]c2ccccc12)C(=O)NCCO)C(C)C)C(C)C)C(C)C (plate: M 3-4) (For-VGA[dL]A[dV]VVW[dL]W[dL]W[dL]W-NHCH2CH2OH) 1.49
O=c1c(O)c(-c2ccc(O)cc2O)oc2cc(O)cc(O)c12 (plate: M 19-20) -0.0341
O=c1c(O)c(-c2ccccc2)oc2cc(O)ccc12 (plate: M 19-20) 0.0793
COc1cc(-c2coc3cc(O[C@@H]4O[C@H](CO)[C@@H](O)[C@H](O)[C@H]4O)c(OC)c(O)c3c2=O)cc(O)c1OC (plate: M 15-16) 0.118
CC(=O)Oc1cc(OC(C)=O)c2c(c1)O[C@H](c1ccc(OC(C)=O)c(OC(C)=O)c1)[C@H](OC(C)=O)C2 (plate: M 21-22) 0.21
O=C1c2ccccc2C(=O)c2c1ccc(O)c2O (plate: M 15-16) 0.373
CN1CCN(CCCN2c3ccccc3Sc3ccc(Cl)cc32)CC1 (plate: M 5-6) -0.0844
COC(=O)/C=C/C(C)=C\C=C\C(C)=C\C=C\C=C(C)\C=C\C=C(C)\C=C\C(=O)O (plate: M 21-22) -0.143
O=c1oc2ccccc2c(O)c1Cc1c(O)c2ccccc2oc1=O (plate: M 1-2) 0.436
CC(=O)O[C@H]1CC[C@@]2(C)[C@@H](CC[C@@H]3[C@@H]2CC(=O)[C@]2(C)[C@@H]4[C@H](C[C@@H]32)O[C@]2(CC[C@@H](C)CO2)[C@H]4C)C1 (plate: M 13-14) 0.904
CC[C@@H]1OC(OC(c2cnc[nH]2)C(NC(=O)c2nc(C(CC(N)=O)NCC(N)C(N)=O)nc(N)c2C)C(=O)NC(C)C(O)C(C)C(=O)NC(C(=O)NCCc2nc(-c3nc(C(=O)NCCCCN=C(N)N)cs3)cs2)C(C)O)[C@@H](O[C@H]2O[C@H](CO)[C@@H](O)[C@H](OC(N)=O)[C@@H]2O)[C@@H](C)[C@@H]1C (stereo partly drawn) [BLEOMYCIN(bleomycinB2shown)] (plate: M 13-14) 0.503
Nc1cc(C(Cl)=C(Cl)Cl)c(S(N)(=O)=O)cc1S(N)(=O)=O (plate: M 9-10) -0.286
COc1c2occc2c(OC)c2c(=O)cc(C)oc12 (plate: M 15-16) 0.01
C1CNCCN1 (plate: M 5-6) 0.0611
NNc1nncc2ccccc12 (plate: M 3-4) -0.46
NCC(O)CC(=O)O (stereo not drawn) (plate: M 23-24) 0.613
O=C(/C=C/c1ccc(O)c(O)c1)OCCc1ccccc1 (plate: M 21-22) -0.313
C[C@H](CCC(=O)O)[C@H]1CC[C@H]2[C@@H]3[C@H](O)C[C@@H]4C[C@H](O)CC[C@]4(C)[C@H]3CC[C@]12C (plate: M 5-6) -0.0967
CC(NCCC(c1ccccc1)c1ccccc1)c1ccccc1 (stereo not drawn) (plate: M 23-24) 0.176
Cc1c(N(C)CS(=O)(=O)O)c(=O)n(-c2ccccc2)n1C (plate: M 9-10) -0.166
CN(C)[C@@H]1C(O)=C(C(=O)NCN2CCCC2)C(=O)[C@@]2(O)C(O)=C3C(=O)c4c(O)cccc4[C@@](C)(O)[C@H]3C[C@@H]12 (plate: M 11-12) -1.07
C[C@@H]1O[C@@H](O[C@H]2[C@H](Oc3cc(O)c4c(=O)cc(-c5ccc(O)cc5)oc4c3)O[C@H](CO)[C@@H](O)[C@@H]2O)[C@H](O)[C@H](O)[C@H]1O (plate: M 19-20) -0.102
CCc1cn([C@H]2C[C@H](O)[C@@H](CO)O2)c(=O)[nH]c1=O (plate: M 7-8) 0.407
N[C@H]1C(O)O[C@H](CO)[C@@H](O)[C@@H]1O (stereo partly drawn) (plate: M 3-4) 0.0418
COC(=O)C1=CO[C@@H](O[C@@H]2O[C@H](CO)[C@@H](O)[C@H](O)[C@H]2O)[C@@H]2[C@@H](C)[C@@H](O)C[C@H]12 (plate: M 19-20) 0.178
C=C1C[C@H]2[C@@H]3C=C(C)C4=CC(=O)CC[C@]4(C)[C@H]3CC[C@]2(C)[C@@]1(OC(C)=O)C(C)=O (plate: M 11-12) 0.126
NC(C(=O)O)C(O)C(=O)O (stereo not drawn) [d,l-threo-3-HYDROXYASPARTICACID] (plate: M 17-18) 0.216
Cn1nnnc1SCC1=C(C(=O)O)N2C(=O)[C@@H](NC(=O)[C@H](O)c3ccccc3)[C@H]2SC1 (plate: M 7-8) 0.133
CCC[C@H](N[C@@H](C)C(=O)N1[C@H](C(=O)O)C[C@@H]2CCCC[C@@H]21)C(=O)OCC (plate: M 9-10) 0.098
COc1ccc(NS(=O)(=O)c2ccc(N)cc2)nn1 (plate: M 7-8) -0.365
Nc1ccc(C(=O)NCC(=O)O)cc1 (plate: M 7-8) 0.558
CC1(C)OC(=O)NC1=O (plate: M 1-2) 0.482
COc1cc(/C=C/C(=O)O)cc(OC)c1OC (plate: M 17-18) 0.135
Nc1ccc(S(=O)(=O)c2ccc(N)cc2)cc1 (plate: M 1-2) -0.387
OC[C@H]1O[C@@H](Oc2ccc(O)cc2)[C@H](O)[C@@H](O)[C@@H]1O (plate: M 17-18) 0.583
OCCN1CCN(CCCN2c3ccccc3Sc3ccc(Cl)cc32)CC1 (plate: M 9-10) -0.204
CN(C)CCc1c[nH]c2ccc(Cn3cncn3)cc12 (plate: M 9-10) 0.221
CCN1CCN(C(=O)N[C@@H](C(=O)N[C@@H]2C(=O)N3[C@@H]2SC(C)(C)[C@@H]3C(=O)O)c2ccccc2)C(=O)C1=O (plate: M 5-6) 0.306
C/C1=C\CCC(=O)C2CC(C)(C)C2CC1 (stereo not drawn) (plate: M 21-22) 0.322
CC(=O)Oc1cccc(O)c1 (plate: M 9-10) -0.386
O=C(NCO)c1cccnc1 (plate: M 23-24) 0.253
CO[C@@H]1[C@@H](OC(N)=O)[C@@H](O)[C@H](Oc2ccc3c(O)c(NC(=O)c4ccc(O)c(CC=C(C)C)c4)c(=O)oc3c2C)OC1(C)C (plate: M 3-4) -0.0678
NC(=O)N/N=C/c1ccc([N+](=O)[O-])o1 (plate: M 3-4) -0.257
CN1CCCC(n2nc(Cc3ccc(Cl)cc3)c3ccccc3c2=O)CC1 (stereo not drawn) (plate: M 9-10) -0.285
O=C(CNC(=O)c1ccc(Cl)cc1)NO (plate: M 11-12) -0.329
CC(=O)N[C@@H](CCC(=O)O)C(=O)O (plate: M 23-24) 0.633
CCCC(=O)Nc1ncnc2c1ncn2[C@@H]1O[C@@H]2COP(=O)(O)O[C@H]2[C@H]1OC(=O)CCC (plate: M 23-24) 0.561
C=CC[C@@H]1/C=C(\C)C[C@H](C)C[C@H](OC)[C@H]2O[C@@](O)(C(=O)C(=O)N3CCCC[C@H]3C(=O)O[C@H](/C(C)=C/[C@@H]3CC[C@@H](O)[C@H](OC)C3)[C@H](C)[C@@H](O)CC1=O)[C@H](C)C[C@@H]2OC (plate: M 9-10) -1.1

Arranged by length of the SMILES (largest number first): some entries from above.
Tryptophan fluorescence intensity z-score, inactive:
C[C@H](CCC(=O)O)[C@H]1CC[C@H]2[C@@H]3[C@H](O)C[C@@H]4C[C@H](O)CC[C@]4(C)[C@H]3CC[C@]12C (plate: M 5-6) -0.0967
CCC[C@H](N[C@@H](C)C(=O)N1[C@H](C(=O)O)C[C@@H]2CCCC[C@@H]21)C(=O)OCC (plate: M 9-10) 0.098
CCc1cn([C@H]2C[C@H](O)[C@@H](CO)O2)c(=O)[nH]c1=O (plate: M 7-8) 0.407
O=C(/C=C/C(=O)Oc1ccccc1C(=O)O)Oc1ccccc1C(=O)O (plate: M 23-24) 0.685
OCCN1CCN(CCCN2c3ccccc3Sc3ccc(Cl)cc32)CC1 (plate: M 9-10) -0.204
NC(=O)N/N=C/c1ccc([N+](=O)[O-])o1 (plate: M 3-4) -0.257
Nc1ccc(S(=O)(=O)c2ccc(N)cc2)cc1 (plate: M 1-2) -0.387
NC(=O)c1ccc([N+](=O)[O-])cc1Cl (plate: M 7-8) 0.485
C/C1=C\CCC(=O)C2CC(C)(C)C2CC1 (stereo not drawn) (plate: M 21-22) 0.322
CN(C)c1nc(N(C)C)nc(N(C)C)n1 (plate: M 7-8) 0.0106
Nc1ccc(C(=O)NCC(=O)O)cc1 (plate: M 7-8) 0.558
NC(C(=O)O)C(O)C(=O)O (stereo not drawn) [d,l-threo-3-HYDROXYASPARTICACID] (plate: M 17-18) 0.216
CC(=O)Oc1cccc(O)c1 (plate: M 9-10) -0.386
C1CNCCN1 (plate: M 5-6) 0.0611

For convenience, 2 of the compounds above:
Tryptophan fluorescence intensity z-score, inactive:
CC(=O)O[C@]1(C(C)=O)CC[C@H]2[C@@H]3C[C@H](C)C4=CC(=O)CC[C@]4(C)[C@H]3CC[C@@]21C (plate: M 5-6) -0.00801
CC(C)NCC(O)c1ccc2ccccc2c1 (stereo not drawn) (plate: M 21-22) 0.95
